No constants are given. Whether binding was seen depends on the method and setting. Some results given as binding are weak or reduced against the parent protein; the word gives no strength. Tags and fused reporters may be left off the sequences shown.

In PMC10907169 one finds binding data, which are given here for 1 molecule.

The target in experiment [1] is T1, Full-length human KIF5A heavy chain (WT), C-terminal FLAG tag (human), Q12840.
T1 chain: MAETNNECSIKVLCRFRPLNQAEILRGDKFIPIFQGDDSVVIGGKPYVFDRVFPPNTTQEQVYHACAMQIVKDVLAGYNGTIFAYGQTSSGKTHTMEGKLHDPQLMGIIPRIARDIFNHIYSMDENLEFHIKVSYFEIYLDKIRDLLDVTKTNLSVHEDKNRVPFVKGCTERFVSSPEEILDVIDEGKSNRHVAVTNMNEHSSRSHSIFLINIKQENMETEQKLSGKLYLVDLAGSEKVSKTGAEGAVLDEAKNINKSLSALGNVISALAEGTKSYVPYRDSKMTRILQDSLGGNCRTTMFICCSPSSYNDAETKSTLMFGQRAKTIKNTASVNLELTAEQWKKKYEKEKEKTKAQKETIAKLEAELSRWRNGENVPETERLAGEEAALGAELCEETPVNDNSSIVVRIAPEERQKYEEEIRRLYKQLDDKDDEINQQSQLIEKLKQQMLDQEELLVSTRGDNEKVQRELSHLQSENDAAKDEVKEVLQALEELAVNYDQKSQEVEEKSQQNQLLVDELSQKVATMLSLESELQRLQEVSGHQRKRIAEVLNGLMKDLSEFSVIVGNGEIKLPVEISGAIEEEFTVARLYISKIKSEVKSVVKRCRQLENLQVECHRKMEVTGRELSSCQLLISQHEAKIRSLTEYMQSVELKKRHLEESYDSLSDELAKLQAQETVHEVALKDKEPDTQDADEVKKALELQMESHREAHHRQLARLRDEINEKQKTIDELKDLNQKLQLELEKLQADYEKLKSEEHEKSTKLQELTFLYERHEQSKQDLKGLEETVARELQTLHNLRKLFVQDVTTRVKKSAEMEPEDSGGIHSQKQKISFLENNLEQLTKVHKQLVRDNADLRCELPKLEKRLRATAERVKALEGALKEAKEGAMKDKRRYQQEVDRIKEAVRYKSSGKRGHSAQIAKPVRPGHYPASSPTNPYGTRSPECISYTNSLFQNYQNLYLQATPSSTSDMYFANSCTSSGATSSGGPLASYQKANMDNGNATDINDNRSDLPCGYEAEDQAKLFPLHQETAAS
Briefly: cross-linking; BS3 cross-linking with mass spectrometry (XL-MS); 2 µM KIF5A in low salt buffer (150 mM KCl, 10 mM MOPS pH 7.2, 2 mM MgCl2, 1 mM EGTA, 1 mM ATP), 25 °C, 30 min, quenched with Tris-HCl pH 8; trypsin digest, LC-MS/MS; both purified. Conditions: remark: other sources report otherwise.

The target of experiment [2] is T1, Full-length human KIF5A heavy chain …. Nature of the experiment: negative-stain electron microscopy; KIF5A 2 µM in low salt buffer cross-linked with 1 mM BS3, diluted to 20 nM, 1% uranyl acetate; 2D class averages and a 24 Å 3D map; both purified. Particulars: remark: other sources report otherwise.

B1: Full-length human KIF5A heavy chain (WT), C-terminal FLAG tag, Q12840 1-1032 (natural protein)
chain: MAETNNECSIKVLCRFRPLNQAEILRGDKFIPIFQGDDSVVIGGKPYVFDRVFPPNTTQEQVYHACAMQIVKDVLAGYNGTIFAYGQTSSGKTHTMEGKLHDPQLMGIIPRIARDIFNHIYSMDENLEFHIKVSYFEIYLDKIRDLLDVTKTNLSVHEDKNRVPFVKGCTERFVSSPEEILDVIDEGKSNRHVAVTNMNEHSSRSHSIFLINIKQENMETEQKLSGKLYLVDLAGSEKVSKTGAEGAVLDEAKNINKSLSALGNVISALAEGTKSYVPYRDSKMTRILQDSLGGNCRTTMFICCSPSSYNDAETKSTLMFGQRAKTIKNTASVNLELTAEQWKKKYEKEKEKTKAQKETIAKLEAELSRWRNGENVPETERLAGEEAALGAELCEETPVNDNSSIVVRIAPEERQKYEEEIRRLYKQLDDKDDEINQQSQLIEKLKQQMLDQEELLVSTRGDNEKVQRELSHLQSENDAAKDEVKEVLQALEELAVNYDQKSQEVEEKSQQNQLLVDELSQKVATMLSLESELQRLQEVSGHQRKRIAEVLNGLMKDLSEFSVIVGNGEIKLPVEISGAIEEEFTVARLYISKIKSEVKSVVKRCRQLENLQVECHRKMEVTGRELSSCQLLISQHEAKIRSLTEYMQSVELKKRHLEESYDSLSDELAKLQAQETVHEVALKDKEPDTQDADEVKKALELQMESHREAHHRQLARLRDEINEKQKTIDELKDLNQKLQLELEKLQADYEKLKSEEHEKSTKLQELTFLYERHEQSKQDLKGLEETVARELQTLHNLRKLFVQDVTTRVKKSAEMEPEDSGGIHSQKQKISFLENNLEQLTKVHKQLVRDNADLRCELPKLEKRLRATAERVKALEGALKEAKEGAMKDKRRYQQEVDRIKEAVRYKSSGKRGHSAQIAKPVRPGHYPASSPTNPYGTRSPECISYTNSLFQNYQNLYLQATPSSTSDMYFANSCTSSGATSSGGPLASYQKANMDNGNATDINDNRSDLPCGYEAEDQAKLFPLHQETAAS
With B1, the binding entry in experiment [1] and in experiment [2] was “binds” in each case.
